From paper PMC5522078, “Discovery and characterization of small molecules targeting the DNA-binding ETS domain of ERG in prostate cancer” (Oncotarget, 2017)
The exact form of at least one protein or probe is not confirmed. A weaker result is weaker than the reference pair of the same experiment. For some of these results: Protein sequences can lack the tags named with them. For some of these results: Results from cells or extracts need not show a direct contact. For some of these results: At least one verdict was read from the data and is not stated in words by the source.

How the values were obtained:
[1] = tested on: ERG in VCaP nuclear extract; test: EMSA; conditions: EMSA: protein stored in 20 mM sodium phosphate, 200 mM NaCl, 2 mM DTT, 0.1 mM EDTA, pH 6.5, reaction with 3% glycerol, 0.2 mg/mL BSA, 1 nM dsDNA, room temperature 1 h, protein in an extract, label: Alexa-488
ERG-ETS domain = target: T1, ERG-ETS domain (UniProt P11308); test: EMSA; conditions: VPC-18005 2 uM-8 mM, dose-dependent disruption (compound KI ~250 uM), 4 nM protein, 1 nM DNA; EMSA: protein stored in 20 mM sodium phosphate, 200 mM NaCl, 2 mM DTT, 0.1 mM EDTA, pH 6.5; reaction with 3% glycerol, 0.2 mg/mL BSA, 1 nM dsDNA, room temperature 1 h; recombinant protein; residues 307-400; protein details: His6 removed by thrombin; label: Alexa-488
T1 sequence (looked up): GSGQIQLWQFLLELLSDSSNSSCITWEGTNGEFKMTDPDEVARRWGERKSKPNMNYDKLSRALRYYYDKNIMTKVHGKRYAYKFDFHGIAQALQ

## CGGCCAAGCCGGAAGTGAGTG (double strand) [ETS consensus GGAA probe]
[1]; VCaP nuclear extract, no compound
  binding result: binds
[1]; VPC-18005 4 uM-8 mM, 55 ng/ul nuclear extract
  binding result: binds more weakly
[1]; YK-4-279 4 uM-8 mM, no disruption, 55 ng/ul nuclear extract
  binding result: binds
ERG-ETS domain
  binding result: binds more weakly
